Assay results as given in PubChem BioAssay AID540256 (National Center for Advancing Translational Sciences (NCATS), 2011).
Values joined by “and” are separate entries in the source; they are usually repeats but may differ in a detail not shown here. Identical values can stand only once. The whole screen tested about 300,000 compounds, of which about 3,700 (1.2%) were called active. Inconclusive results, whose numbers are uncertain, are shown with a selection of clear calls. The call rests on the fitted dose curve; tested in HEK293 cells. Potencies of inconclusive entries are doubtful fits and often do not repeat.

Assay: qHTS for Inhibitors of binding or entry into cells for Lassa Virus; further: nearly all actives have a fitted effect of over 50% in size
Details: Lassa virus pseudotype entry inhibition, cell reporter; activity change, negative = inhibition: at 37.9 µM (top of the series) unless noted
On the % scale 0 is the no-effect control and ±100 the full control effect; potency means the concentration at half of the fitted maximal effect.

SMILES | Potency | activity change, negative = inhibition
CCOc1cccc(C(=O)NC(=S)NCc2cccnc2)c1 | inconclusive: 2 µM [inhibitor, partial curve] | –
Cc1ccc2c(c1)C1CN(C)CCC1N2C(=O)COc1ccc(N(C)S(=O)(=O)c2cccs2)cc1 (configuration not stated) | inconclusive: 35.5 µM [inhibitor, single point] | –
CC(C)(C)NS(=O)(=O)c1cc(C(=O)Nc2sccc2C#N)ccc1Cl | inconclusive: 14.1 µM [inhibitor, single point] | –
CC1CC(C)CN(C(=O)c2ccc(S(=O)(=O)N3CC(C)CC(C)C3)cc2)C1 (configuration not stated) | inconclusive: 22.4 µM [inhibitor, single point] | –
O=c1oc2ccccc2cc1-c1cn2cc(Cc3ccc(Cl)cc3)sc2n1 | inconclusive: 3.55 µM [inhibitor, full curve] | –
COc1ccc2[nH]cc(C(=O)NCCc3ccccc3)c(=O)c2c1 | inconclusive: 8.91 µM [inhibitor, partial curve, poor fit] | –
O=C(NCC(=O)N(Cc1ccco1)C(C(=O)NC1CCCC1)c1ccncc1)c1cccs1 (configuration not stated) | inconclusive: 6.31 µM [inhibitor, partial curve, poor fit] | –
O=C(NC1CCCC1)C1CC(O)CN1C(=O)Nc1ccccc1 (configuration not stated) | inconclusive: 2 µM [inhibitor, partial curve, poor fit] | –
COc1ccc2cc([C@H](C)C(=O)OCc3cn(CC(=O)c4ccc(O)cc4)nn3)ccc2c1 | inconclusive: 8.87 µM [inhibitor, full curve, poor fit] | –
CCOC(=O)c1cc(-c2ccccc2)sc1NC(=O)C(C)N1C(=O)c2ccccc2C1=O (configuration not stated) | inconclusive: 7.94 µM [inhibitor, partial curve, poor fit] | –
c1ccc(SCc2nc3ccccc3s2)nc1 | inconclusive: 0.562 µM [activator, full curve, poor fit] | –
CCN(CC)C(=O)c1ccc(N2C(=O)C3CC=C(Cl)CC3C2=O)cc1 (configuration not stated) | – | inactive: 4.49%
O=c1[nH]cnc2scc(-c3ccc(-c4ccccc4)cc3)c12 | inconclusive: 0.259 µM [activator, partial curve] | –
COc1ccc(CN2C(=O)c3ccccc3C2C(=O)NCCc2ccccc2)c(OC)c1 (configuration not stated) | inconclusive: 7.08 µM [inhibitor, partial curve, poor fit] and inconclusive: 3.55 µM [inhibitor, full curve] | –
CC(C)CCNC(=O)CN1N=C(c2ccc(Cl)cc2)CCC1=O | inactive | –
O=C(NN=Cc1ccccc1O)C(O)c1ccccc1 (configuration not stated) | – | inactive: -21.5% [at 46.1 µM]
OCCC1CN(Cc2ccsc2)CCN1C1CCCC1 (configuration not stated) | – | inactive: 18.3% [at 46.1 µM]
CSCC[C@H](NC(=O)OC(C)(C)C)c1nnc(SCc2cccc(F)c2)o1 | inconclusive: 35.5 µM [inhibitor, single point] | –
CCOC(=O)c1cnc(SCc2ccc(Cl)c(Cl)c2)nc1N1CC1 | inconclusive: 3.16 µM [inhibitor, partial curve, poor fit] | –
COc1cccc(N2CCN(C(=O)Cn3c(-c4cccs4)cc4ccccc43)CC2)c1 | – | inactive: -12.8% [at 46.1 µM]
COc1ccccc1Oc1ncnc2sccc12 | inconclusive: 0.562 µM [inhibitor, full curve, poor fit] | –
O=C(CN1CCN(c2ccccc2)CC1)Nc1ccccc1Sc1ccccc1 | inconclusive: 12.6 µM [inhibitor, partial curve] | –
O=C(Cn1nnc2ccccc21)NCc1ccccc1 | inconclusive: 1.26 µM [activator, single point] | –
Cc1nc2c(-c3ccccc3)c[nH]n2c(=O)c1Cc1ccccc1 | inconclusive: 32.6 µM [inhibitor, partial curve, poor fit] | –

SMILES | Potency | activity change, negative = inhibition
Cc1ccc(C(=O)Nc2ccccc2SCC2CSc3nc4ccccc4c(=O)n32)cc1 (configuration not stated) | active: 7.08 µM | –
Cc1cc(C)c2nc(NC(=O)c3ccc4c(c3)OCO4)sc2c1 | – | inactive: -1.22%
O=C(NC(=S)Nc1cccc(S(=O)(=O)NC2=NCCC2)c1)c1cc(-c2ccco2)nc2ccccc12 | – | inactive: -11.9%
CC1CCCCN1CCn1c(=S)[nH]c2ncccc2c1=O (configuration not stated) | – | inactive: -0.89%
CC(C)=NOC(=O)c1ccc(-c2ccccc2)cc1 | – | inactive: 1.03%
Cc1ccc(/C=N/NC(=O)Cc2ccc(Cl)cc2)c(O)c1 | inconclusive: 2.82 µM [inhibitor, single point] | –
O=C(c1ccc(COc2ccc(Cl)cc2)o1)N1CCN(Cc2ccc3c(c2)OCO3)CC1 | inconclusive: 16.4 µM [inhibitor, partial curve, poor fit] | –
O=c1c2ccccc2nc(/C=C\c2ccccc2F)n1-c1ccc(O)cc1 | – | inactive: -27.5% [at 46.1 µM]
CC(C)c1ccc(OC(=O)c2cc(-c3ccccc3)on2)cc1 | – | inactive: -3.56% [at 46.1 µM]
Cn1cc(Cl)c(C(=O)NNC(=S)NCc2ccco2)n1 | – | inactive: 2.64%
COc1cccc(C(=O)Nc2ccc(NC(=O)C(C)(C)C)cn2)c1 | active: 7.08 µM | –
C=CCn1cccc(C(=O)Nc2cc(OC)cc(OC)c2)c1=O | inconclusive: 5.62 µM [activator, single point] | –
CCOc1ccccc1NC(=O)c1cc2ccccc2oc1=O | – | inactive: 1.63%
c1cc2c(cc1C1=NNC(=NC3CC3)SC1)OCCO2 | active: 0.291 µM | –
O=C(NC1CCCC1)c1cnc2n(c1=O)CCS2 | inconclusive: 35.5 µM [activator, single point] | –
O=C(Cc1ccc(-n2cccc2)cc1)NCc1cccs1 | – | inactive: 1.79%
Cc1ccc(C)c(OC(=O)CSc2nnc(CNC(=O)c3ccccc3)o2)c1 | – | inactive: -2.99% [at 46.1 µM]
O=C(O)CC(CC(=O)Nc1ccc2ccccc2n1)c1ccccc1 (configuration not stated) | inconclusive: 5.62 µM [inhibitor, single point] | –
O=C(c1cccs1)c1sccc1Cc1ccccc1 | inconclusive: 10 µM [activator, partial curve, poor fit] | –
O=C(COc1ccccc1O)Nc1ccc(Cl)cc1 | – | inactive: -27.2%
COc1ccc(CN2CCNC(=O)C2CC(=O)NCCN2CCCCC2=O)c(F)c1 (configuration not stated) | – | inactive: 7.68%
COc1ccc(-c2cc(=O)oc3cc(O)ccc23)cc1 | inconclusive: 2.24 µM [inhibitor, partial curve, poor fit] | –
O=S(=O)(c1ccc2nc(N3CCN(c4cccc(Cl)c4)CC3)ccc2c1)N1CCCCC1 | inconclusive: 7.08 µM [inhibitor, partial curve, poor fit] | –
